This is one part of the list.
target: OsWRKY34 (Oryza sativa, UniProt Q0JBA9 1-250); experiment: protein-binding microarray (RPBM); PBS, 2% BSA, 51.3 ng/ul salmon testes DNA, 50 uM zinc acetate, 200 nM TF, 25 C, 1 h; high values mean tight binding; details: protein: recombinant; tags: N-terminal polyhistidine and DsRed monomer fusion (pET32a); label: CyDye5-dUTP incorporated in the synthesized complementary strand; 3' TTTTT single-stranded linker to array surface; dsDNA, one strand shown
Outline: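 Binding signal is reported as fluorescence intensity per feature (arbitrary units) from an Axon 4000B scanner. Incubation used 200 nM of each Ni–NTA-purified, N-terminally polyhistidine- and DsRed-fused transcription factor from E. coli BL21-CodonPlus on a double-stranded custom Agilent array for 1 h at 25 °C, with 50 µM zinc acetate in the buffer, followed by washing.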

By UniProt entry, the sequences of proteins in these tests, tags left out.
UniProt Q0JBA9, entry or part of it: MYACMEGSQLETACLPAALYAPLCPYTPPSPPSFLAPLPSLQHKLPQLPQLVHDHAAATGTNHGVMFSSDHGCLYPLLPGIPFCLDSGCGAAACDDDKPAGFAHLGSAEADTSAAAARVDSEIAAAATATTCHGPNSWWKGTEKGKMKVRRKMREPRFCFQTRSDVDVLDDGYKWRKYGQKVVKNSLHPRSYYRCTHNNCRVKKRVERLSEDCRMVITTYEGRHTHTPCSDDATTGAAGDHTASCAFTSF

Row | Sequence | binding signal
1 | AATCCTGAATGCTGCATACCATCATGTCTCGTTCACGCTGCGGAGTCACCTAGTGCAG | 12300 fluorescence intensity (a.u.)
2 | CTCATCTCCCATCCATGGCTGCTCTCTACCTCGTTTCCATCGGAGTCACCTAGTGCAG | 8350 fluorescence intensity (a.u.)
3 | CCGCCCTTTTGACCCAACCCCACCGACCCAACGAACGCGACGGAGTCACCTAGTGCAG | 9800 fluorescence intensity (a.u.)
4 | ACTCACTAGTGATCAGTACTGCTATGTTGCTTTCAATAAACGGAGTCACCTAGTGCAG | 9530 fluorescence intensity (a.u.)
5 | GCAGCTCCCTCCACCGCGCCACCCATCCATCGCCAGCCATCGGAGTCACCTAGTGCAG | 8170 fluorescence intensity (a.u.)
6 | TTGTCACTGCCTGTACGGGGCCCTTGTTTTTTGGTTATAACGGAGTCACCTAGTGCAG | 8520 fluorescence intensity (a.u.)
7 | ATTATTATTTATTTTGTTTATCATTTGCTTTATTATCAAACGGAGTCACCTAGTGCAG | 8140 fluorescence intensity (a.u.)
8 | AACAGCGACGGCCATTACCTTACCCGGTTCAATTCAACGCCGGAGTCACCTAGTGCAG | 9660 fluorescence intensity (a.u.)
9 | TCTCCGCCTAAACATAGCTATCTCCACTCCTACTTCCCGGCGGAGTCACCTAGTGCAG | 10300 fluorescence intensity (a.u.)
10 | TGATTTGTGTTACCATGACGTCTGTCTATTTCCTAGTCATCGGAGTCACCTAGTGCAG | 10900 fluorescence intensity (a.u.)
11 | GATTTCTCCTAGGTCTCGGATTTCATCTTGTATACACTACCGGAGTCACCTAGTGCAG | 10200 fluorescence intensity (a.u.)
12 | CGCTGCAGCGGTGTGCCTTACATTTCTTGCTATCATTTTTCGGAGTCACCTAGTGCAG | 13500 fluorescence intensity (a.u.)
13 | GCTATTCTACAGTTTTCTTATCTATGCAGTTCTTTAAGAACGGAGTCACCTAGTGCAG | 8250 fluorescence intensity (a.u.)
14 | AGCTATATTACTCACCTTCTCTCTTTAAGCCTGTCTAGTACGGAGTCACCTAGTGCAG | 10300 fluorescence intensity (a.u.)
15 | TCCCCAGCCGCCGCCGGAACCCGAGACCACCCTTGACGGCCGGAGTCACCTAGTGCAG | 8060 fluorescence intensity (a.u.)
16 | ACCTGCGTAGTACCCTAAGGTCCTGAGTTCAAATCTCCTACGGAGTCACCTAGTGCAG | 8110 fluorescence intensity (a.u.)
17 | ACCGCCTTTTGTTTTTCTCTCTCGTTTCGTGTGCGCCGCGCGGAGTCACCTAGTGCAG | 10100 fluorescence intensity (a.u.)
18 | TCCATCCATATCGTCTACTCCTTGCTCCATGCCTCCATCACGGAGTCACCTAGTGCAG | 8710 fluorescence intensity (a.u.)
19 | GTGTCCATGTGGTTATATGATGATTAATTTGAGAAATTTCCGGAGTCACCTAGTGCAG | 9800 fluorescence intensity (a.u.)
20 | TGTTTTCTCTCTCTGCTACTTGCTAGTGGGACGGGGATCGCGGAGTCACCTAGTGCAG | 8050 fluorescence intensity (a.u.)
21 | ACTTATTCACCAACACTGTCTTCTCAACCAATCACAACCCCGGAGTCACCTAGTGCAG | 8610 fluorescence intensity (a.u.)

Two consecutive records already listed, quoted:
Row | Sequence | binding signal
8 | AACAGCGACGGCCATTACCTTACCCGGTTCAATTCAACGCCGGAGTCACCTAGTGCAG | 9660 fluorescence intensity (a.u.)
9 | TCTCCGCCTAAACATAGCTATCTCCACTCCTACTTCCCGGCGGAGTCACCTAGTGCAG | 10300 fluorescence intensity (a.u.)

Carrying on:

Row | Sequence | binding signal
22 | TACCACCAACACACCACTCGTCTCATTTCTGGCCTATATACGGAGTCACCTAGTGCAG | 15600 fluorescence intensity (a.u.)
23 | ATGTCTCTCGCAGTCGCTGTCAGTCTGTCTTGTGTCCGCACGGAGTCACCTAGTGCAG | 13700 fluorescence intensity (a.u.)
24 | TTTTTTTTAATTACACGGCAAATGCACACATATATACACCCGGAGTCACCTAGTGCAG | 8320 fluorescence intensity (a.u.)
25 | TCTTCTCCCTTTCTCTCTCTCTCTCTCACTTTTCTCAGCCCGGAGTCACCTAGTGCAG | 8410 fluorescence intensity (a.u.)
26 | AATGAATAGCATTGAGCTTCATCCCTGTTCGTTTCTCACGCGGAGTCACCTAGTGCAG | 8850 fluorescence intensity (a.u.)
27 | GTCAGACAGCTTGTTGCCTTGTTGTTGCTGAGTTTCTCTCCGGAGTCACCTAGTGCAG | 9460 fluorescence intensity (a.u.)
28 | TTTCGTGCATTTCTTACATTTTCTCCATGAATATAACGCTCGGAGTCACCTAGTGCAG | 9860 fluorescence intensity (a.u.)
29 | CCTTGTGATCGTCTGATCTCTTCTTTGTAGTTGCCTCCTCCGGAGTCACCTAGTGCAG | 9080 fluorescence intensity (a.u.)
30 | CGGCTCACGGCTCGCCCGCTCTCGTTCTCCACCTTATCACCGGAGTCACCTAGTGCAG | 8160 fluorescence intensity (a.u.)
31 | AAAAAGAGTTCTCTTCTTCACTTCTACTCTTCACAACTTTCGGAGTCACCTAGTGCAG | 9410 fluorescence intensity (a.u.)
32 | GGGAAATCCCTCGTGGGGAACAGGTTTGACCGACCTTTCACGGAGTCACCTAGTGCAG | 8220 fluorescence intensity (a.u.)
33 | CGTCCGTCCACCGACCCAGCAGTGCACCTCCCGTTCGCCTCGGAGTCACCTAGTGCAG | 8210 fluorescence intensity (a.u.)
34 | TGTTCTTTTTCTCTCACATGCCACCTCCTACCCAATCATGCGGAGTCACCTAGTGCAG | 8720 fluorescence intensity (a.u.)
35 | CTGTGGTGGTGTGCATACGGGTTGGGGTGGAGGGCTGCTCCGGAGTCACCTAGTGCAG | 17900 fluorescence intensity (a.u.)
36 | TACTCCTACGAACGCGCCACCTTCACCTCATGTACGTATACGGAGTCACCTAGTGCAG | 9610 fluorescence intensity (a.u.)
37 | GCCCACCTTGATTTGCTCGTACTTTGATTCTTTCTGCCTCCGGAGTCACCTAGTGCAG | 10600 fluorescence intensity (a.u.)
38 | TCCGGTTCGTTATTTTTATTTTTCTCAGGGAAAAAAAATCCGGAGTCACCTAGTGCAG | 8060 fluorescence intensity (a.u.)
39 | TAGTCGGTTTATTGGCTTATTAGCTATTTGAATTTTAAAACGGAGTCACCTAGTGCAG | 8050 fluorescence intensity (a.u.)
40 | CCACTCATCATCAAACTCTCTCTCTCTCTCTCTCTCTCTCCGGAGTCACCTAGTGCAG | 8550 fluorescence intensity (a.u.)
41 | GTGTGCGCCACTTCTCTCGGGACGGGACGGGACGGGCGCGCGGAGTCACCTAGTGCAG | 8640 fluorescence intensity (a.u.)
42 | ACTGCCCTTATCATTTCCGATTCCGTTTCCGAGAAAATATCGGAGTCACCTAGTGCAG | 9240 fluorescence intensity (a.u.)

Two entries from above in another layout.

| Row | Sequence | binding signal |
| --- | --- | --- |
| 11 | GATTTCTCCTAGGTCTCGGATTTCATCTTGTATACACTACCGGAGTCACCTAGTGCAG | 10200 fluorescence intensity (a.u.) |
| 34 | TGTTCTTTTTCTCTCACATGCCACCTCCTACCCAATCATGCGGAGTCACCTAGTGCAG | 8720 fluorescence intensity (a.u.) |

— article PMC7819943, “Rice protein-binding microarrays: a tool to detect cis-acting elements near promoter regions in rice”
